From ChEMBL document CHEMBL3988442, “University of Dundee, Small-Polar-MMV Screening Library” (2021).

Mtb cholesterol medium: 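Growth of Mycobacterium tuberculosis over 4 days (cholesterol / DPPC medium with tyloxapol); the read-out is not stated. Concentration: 500 µM. Higher reads as more growth inhibition (inferred: compounds with an IC50 in retests scored well above the rest). About 18,000 compounds were tested under these conditions; 5% (about 900) showed 50% or more at least once.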
Mtb glucose medium: 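Growth of Mycobacterium tuberculosis over 3 days (7H9 medium with glucose and tyloxapol); the read-out is not stated. Concentration: 500 µM. The record gives no direction; compounds that gave an IC50 in retests scored well above the rest, so higher reads as more growth inhibition. About 18,000 compounds were tested under these conditions; 7.9% (about 1,400) showed 50% or more at least once.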

The filed quantity is “Percent Effect” (%).
The controls that fix the scale are not given in the record; negative values are as filed.
This is an unselected part of the compounds tested.

| compound | Mtb cholesterol medium | Mtb glucose medium |
|---|---|---|
| `CCn1cnnc1CNC(=O)c1ccc2c(c1)CCO2` | -8.985% | -6.012% |
| `NCCC1COc2ccccc2O1` (stereo not drawn) | -27.48% | -12.25% |
| `Cc1noc(C)c1CC(=O)NCC1(O)CCCNCC1` (stereo not drawn) | -8.856% | -4.15% |
| `CC(C)C(N)C1(CO)CC=CC1` (stereo not drawn) | -30.98% | -11.4% |
| `COc1ccccc1-c1noc(CN)n1` | -4.864% | 6.649% |
| `CSC(C)(C)COC(=O)c1ccc(-n2ccnc2)nc1` | -21.39% | -12.91% |
| `Cc1cccc2[nH]c(CNC(=O)CNC(N)=O)nc12` | -2.078% | 0.9946% |
| `COc1cc(OC)cc(C(=O)NC2CCN(C)CC2)c1` | 7.415% | 17.83% |
| `Cn1cccc1C(=O)NCC(C)(O)c1cccs1` (stereo not drawn) | -4.508% | -4.016% |
| `NCCc1cn2c(n1)CCC2` | -0.8957% | 3.346% |
| `Cc1cccc(NCCNC(=O)c2ccccc2)n1` | 15.54% | 56.09% |
| `Cc1ccc(OCC(=O)NCC2CCCO2)nc1` (stereo not drawn) | 4.844% | -0.3679% |
| `CO[C@H]1CN(C(=O)CCCc2cn[nH]c2)CC[C@H]1N` | -3.039% | 5.765% |
| `CC(=O)NCC(=O)N1CCN(c2ccncc2Cl)CC1` | 8.991% | 13.51% |
| `CNC(=O)CN(C)C(=O)c1csc(Br)c1` | -15.83% | 0.9059% |
| `O=C(NCCN1CCCCC1)c1cc(C2CC2)[nH]n1` | -10.61% | -5.401% |
| `CCCC(N)C(=O)Nc1nccs1` (stereo not drawn) | 2.532% | -19.53% |
| `CC(N)c1nc(-c2ccc(Br)cc2)c[nH]1` (stereo not drawn) | 101.6% | 91.69% |
| `C=C(Cl)CS(=O)(=O)N1CCC(C(=O)N(CC)CC)CC1` | 7.027% | -0.9969% |
| `CNS(=O)(=O)c1ccc(C(=O)N2CCOCC2)o1` | -38.28% | -24.09% |
| `CNCC1CCN(C(=O)c2cc(Br)c[nH]2)C1` (stereo not drawn) | 42.08% | 45.74% |
| `CC(C)CC(NC(CO)CO)c1cccs1` (stereo not drawn) | -1.992% | 5.21% |
| `NC(=O)c1ccccc1NC(=O)CSc1ccccn1` | 53.16% | 53.18% |
| `CNCc1n[nH]c(=O)n1-c1ccc(Cl)cc1` | 1.824% | -0.5894% |
| `Cc1nn(C)c(C(=O)NC2CC2)c1Br` | 26.31% | 18.89% |
| `Cc1ccccc1CNCCS(=O)(=O)N1CCOCC1` | 9.307% | -2.891% |
| `Cc1cnc(C(=O)N=c2sccn2C)cn1` | -1.867% | 7.348% |
| `CNCCN(C)C(=O)c1ccc(SCCO)cc1` | 4.969% | -10.43% |
| `N#Cc1ccnc(O)c1` | -22.87% | -5.983% |
| `CCSCCN1CCC=C(CNC(C)=O)C1` | 1.328% | 5.043% |
| `Cc1ccnn1CC(=O)NCCN` | 5.755% | 0.8587% |
| `Cc1ccccc1CN1CCCN(CCC(N)=O)CC1` | 35.07% | 44.74% |
| `Cc1cc(C(=O)NCCNc2ccccc2)[nH]n1` | -9.333% | 26.78% |
| `Cc1c(C(=O)NCCc2ccsc2)cnn1C` | -14.19% | 18.56% |
| `COc1ccc2c(c1)OCC(CNC(=O)CN(C)C)C2` (stereo not drawn) | 55.29% | 61.32% |
| `NCc1cccc(OCCN2CCOCC2)c1` | -0.2521% | 5.965% |
| `Cc1ccc2c(c1)nc(CCN)n2C` | 15.18% | 42.38% |
| `CNC(=O)CCCNC(=O)Nc1nc2ccccc2s1` | -6.444% | 6.926% |
| `O=C(NC1CC1)c1ccc(-n2ccnc2)cc1` | -9.645% | 0.1443% |
| `COc1ccc2nc(CCNC(=O)CCSC)[nH]c2c1` | 6.143% | 21.53% |

The last 4 entries again:

compound	Mtb cholesterol medium	Mtb glucose medium
Cc1ccc2c(c1)nc(CCN)n2C	15.18%	42.38%
CNC(=O)CCCNC(=O)Nc1nc2ccccc2s1	-6.444%	6.926%
O=C(NC1CC1)c1ccc(-n2ccnc2)cc1	-9.645%	0.1443%
COc1ccc2nc(CCNC(=O)CCSC)[nH]c2c1	6.143%	21.53%